# Measured values from PubChem BioAssay AID445 (National Center for Advancing Translational Sciences (NCATS), 2006).
# Some of the results follow. Shown are side measurements of this screen, not its main read-out; they come without a call. The list favours compounds with an active or inconclusive main result. Potencies come from curve fits of mixed quality, noted in brackets.
# Assay: IkB Signaling
# Conditions: ABC-DLBCL IkBa-CBG/CBR dual luciferase ratio (green luciferase fused to IkBa over red control in OCI-Ly3 lymphoma cells), 4 h
# Summary of the method: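 Luminescence ratio of IκBα-fused green versus native red beetle luciferase in OCI-Ly3 cells, 4 h post-doxycycline with compound; red signal alone, scaled from basal (0%) to zero light (-100%), flagged nonspecific or cytotoxic effects.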
# [1] = measured here: control luc red channel unless noted
# [2] = measured here: IkB-luc green channel
# [3] = measured here: control luc red channel
smiles,measurement,setting,value
CCOc1ccc(-c2nc(CSCC(=O)NCc3ccc(Cl)cc3)c(C)o2)cc1,AC50,[1],"31.6 µM [falling, single point]"
CCN(CC)CCNC(=O)c1ccc2c(=O)n3nc(Nc4ccccc4OC)sc3nc2c1,AC50,[1],"31.6 µM [falling, partial curve]"
CCOC(=O)CSc1nc2c(c(=O)n(Cc3ccccc3Cl)c(=O)n2C)n1C,AC50,[1],"25.1 µM [rising, single point] [measured here: IkB-luc green channel]"
CCCn1c(=O)c(C(=O)NCc2ccc(OC)c(OC)c2)c(O)c2ccccc21,AC50,[1],"39.8 µM [falling, single point]"
CC(=O)c1cc2c(cc1N/C(=N/S(=O)(=O)c1ccc(C)cc1)c1ccc(F)cc1)OCO2,AC50,[1],"3.16 µM [rising, partial curve]"
CCn1c(SCC(=O)Nc2cccc(NC(=O)c3ccco3)c2)nnc1-c1cccs1,AC50,[1],"7.94 µM [falling, partial curve]"
CCSc1nc2n(n1)C(c1ccc(Cl)cc1Cl)C(C(=O)Nc1ccccc1C)=C(C)N2 (stereo not drawn),AC50,[1],"31.6 µM [falling, single point]"
CCCCOc1ccc(C(=O)N(Cc2ccc(N(C)C)cc2)Cc2ccco2)cc1,AC50,[1],"20 µM [falling, partial curve]"
CC(C)(C)c1ccc(-c2nc(NC(=O)CSc3ncnc4sc5c(c34)CCCC5)ns2)cc1,AC50,[1],"0.2 µM [falling, full curve, poor fit]"
Cc1ccc(-n2ncc3c(NCc4ccccc4)ncnc32)cc1Cl,AC50,[1],"20 µM [falling, single point]"
COc1ccc(N2CC(NC(=O)/C=C\c3ccc4c(c3)OCO4)CC2=O)cc1OC (stereo not drawn),AC50,[1],"25.1 µM [falling, single point]"
O=C(NCCc1csc(-c2cccnc2)n1)c1cccc(Cl)c1,AC50,[1],"31.6 µM [falling, single point]"
Cc1ccc2ncc(C(=O)c3ccc(C)c(C)c3)c(S(=O)(=O)c3ccc(F)cc3)c2c1,AC50,[1],"3.16 µM [falling, full curve]"
CCOc1ccc(CC(=O)NCCc2sc3nc(-c4ccc(F)cc4)nn3c2C)cc1,AC50,[1],"7.94 µM [falling, partial curve]"
O=C(c1ccc(COc2ccccc2Cl)o1)N1CCN(c2ccccc2)CC1,AC50,[1],"15.8 µM [falling, partial curve]"
Cc1ccccc1Cn1c(SCc2ccc(C(=O)NC3CCCCC3)cc2)nc2ccncc21,AC50,[1],"31.6 µM [falling, partial curve]"
CC(C)N(Cc1nc(-c2ccc(Cl)cc2)no1)C(=O)c1ccc(C(C)(C)C)cc1,AC50,[1],"25.1 µM [falling, partial curve]"
CC(C)Cc1cc(C(=O)NCc2cccs2)no1,AC50,[1],"12.6 µM [falling, partial curve]"
Cc1cccc(NC(=O)CSc2nc3ccc(NC(=O)c4ccccc4)cc3s2)c1,AC50,[1],"3.98 µM [falling, full curve]"
CC1=C(c2ccc(Cl)cc2)S(=O)(=O)N=C1N1CCN(c2cccc(C)c2C)CC1,AC50,[1],"3.16 µM [rising, partial curve]"
CCOc1ccc(-c2cc3nc(C4CCN(C(=O)OC(C)(C)C)CC4)c(C(=O)Nc4cccc(CC)c4)cn3n2)cc1,AC50,[1],"25.1 µM [falling, partial curve]"
Cc1ccc(CNc2nnc(C)c3nnn(Cc4ccc(F)cc4)c23)cc1,AC50,[1],"1.58 µM [rising, partial curve]"
CC(C)(C)OC(=O)N1CCC(c2c(C(=O)NCCN3CCc4ccccc4C3)cnn2-c2ccc(F)cc2)CC1,AC50,[1],"12.6 µM [falling, partial curve]"
Cc1ccc(CNC(=O)Nc2cc(C(=O)NCc3ccc(C(C)C)cc3)ccc2N2CCCC2)cc1,AC50,[1],"12.6 µM [falling, partial curve]"
COc1ccccc1C(=O)N1c2ncnn2C2(CCCCC2)[C@@H]2CCCC[C@@H]21,AC50,[1],"25.1 µM [falling, single point]"
CCn1c(=O)cc(SCC(=O)NCc2cccc(Cl)c2)c2ccccc21,AC50,[1],"1.58 µM [falling, partial curve, poor fit]"
CSc1nc(Nc2ccc(F)cc2)cc(-c2ccccc2)n1,AC50,[1],"10 µM [falling, partial curve]"
CCOc1ccc(-c2nn(-c3ccccc3)cc2C2NC(=O)NC(C)=C2C(=O)OC(C)C)cc1 (stereo not drawn),AC50,[1],"25.1 µM [falling, single point]"
COc1ccccc1NC(=O)CSc1nncn2c1cc1sccc12,AC50,[1],"15.8 µM [falling, single point]"
CSc1nc(N(CCO)CCO)c2sc3nc(-c4ccco4)c4c(c3c2n1)CCC4,AC50,[1],"12.6 µM [falling, partial curve]"
CCOCCCNC(=O)C(c1ccccc1)N(Cc1ccc2c(c1)OCO2)C(=O)c1ccc(NC(C)=O)cc1 (stereo not drawn),AC50,[1],"7.94 µM [falling, partial curve]"
CCC(=O)C1=C(c2ccc(F)cc2)N(C(=O)CC)n2cnnc2S1,AC50,[2],"31.6 µM [rising, partial curve]"
same,AC50,[3],"3.98 µM [rising, partial curve]"
Cc1ccccc1CN1C(=O)c2ccccc2S(=O)c2ccc(C(=O)NCc3ccc(Cl)cc3)cc21 (stereo not drawn),AC50,[1],"12.6 µM [falling, partial curve]"
O=C(NCc1ccc2c(c1)OCO2)c1ccc2c(c1)N(Cc1ccccc1F)C(=O)c1ccccc1S2,AC50,[1],"12.6 µM [falling, partial curve]"
CCN(C(=O)Cn1c(=O)n(-c2ccccc2)c(=O)c2ccc(C(=O)NCc3ccc4c(c3)OCO4)cc21)c1cccc(C)c1,AC50,[1],"1.58 µM [falling, full curve]"
C=CCNC(=O)c1cc(-c2ccc(Br)cc2)on1,AC50,[1],"2 µM [falling, full curve, poor fit]"
O=C(CCSc1nc2ccccc2o1)N1CCOCC1,AC50,[1],"2 µM [falling, full curve]"
CCC(=O)N1c2ccccc2CC1C(=O)NCc1cc(OC)ccc1OC (stereo not drawn),AC50,[1],"39.8 µM [falling, single point]"
O=C(Nc1ccc2c(c1)OCCO2)c1ccc2nccnc2c1,AC50,[1],"15.8 µM [falling, partial curve]"
CC(C)c1ccc(NC(=O)c2cc(S(=O)(=O)N(C)C3CCCCC3)ccc2F)cc1,AC50,[1],"0.00316 µM [falling, full curve, poor fit]"
CCCCn1cnc2cc(NCc3ccc(OCC)cc3)ccc21,AC50,[1],"31.6 µM [falling, single point]"
CCOc1ccc(NC(=O)c2cc(S(=O)(=O)N3CCc4ccccc43)ccc2F)cc1,AC50,[1],"3.16 µM [falling, full curve]"
Cc1ccc2c(=O)cc(C(=O)Nc3ccc(S(=O)(=O)Nc4onc(C)c4C)cc3)oc2c1C,AC50,[1],"25.1 µM [falling, partial curve]"
O=C(CSc1oc(-c2ccccc2)nc1S(=O)(=O)c1ccc(Cl)cc1)c1ccccc1,AC50,[1],"3.98 µM [falling, full curve]"
Cc1ccc(-n2cc(C(=O)Oc3ccc(F)cc3)c3ccccc3c2=O)cc1,AC50,[1],"31.6 µM [falling, partial curve, poor fit]"
O=C(CC1C(=O)N(c2ccc(F)cc2)C(=O)N1Cc1ccc2c(c1)OCO2)Nc1ccc(Cl)cc1 (stereo not drawn),AC50,[1],"15.8 µM [falling, partial curve]"
O=C(CSc1nc2ccccc2[nH]1)Nc1cc(C(F)(F)F)ccc1N1CCOCC1,AC50,[1],"15.8 µM [falling, partial curve]"
Cc1cc(C)nc(-n2nc(C)c3c2N(Cc2ccccc2)C(=O)CC3c2ccc(Cl)cc2)n1 (stereo not drawn),AC50,[1],"15.8 µM [falling, partial curve]"
NC(=O)c1c(NC(=O)CS(=O)(=O)c2ccc(Cl)cc2)sc2c1CCCCC2,AC50,[1],"12.6 µM [falling, partial curve]"
Cc1ccc(Nc2c(-c3ccc(Br)o3)nc3ccccn23)cc1,AC50,[1],"39.8 µM [falling, single point]"
COc1ccc(-c2cc(C(N)=O)nc(N3CCCCCC3)n2)cc1,AC50,[1],"10 µM [falling, partial curve]"
CCOc1ccc(NC(=O)CSC2=Nc3ccccc3C3=NC(CCC(=O)NCc4ccco4)C(=O)N23)cc1 (stereo not drawn),AC50,[1],"2 µM [rising, full curve, poor fit]"
CCC(=O)Oc1c(Sc2ccc(Cl)cc2)c(C)nn1-c1ccccc1,AC50,[1],"5.01 µM [falling, partial curve]"
Cc1ccc(Cl)cc1N1CCN(C(=O)Cn2ncc3c4ccccc4n(C)c3c2=O)CC1,AC50,[1],"10 µM [falling, partial curve]"
O=C(NCCCN1CCN(c2cccc(Cl)c2)CC1)c1sc2ncccc2c1-n1cccc1,AC50,[1],"31.6 µM [falling, partial curve]"
Cc1cc(Cl)ccc1NS(=O)(=O)c1c(C(=O)N2CCC(C)CC2)c(C)n(C)c1C,AC50,[1],"20 µM [falling, single point]"
CC1CCCN(c2nc3c(-c4ccc(Cl)cc4)nnn3c3ccccc23)C1 (stereo not drawn),AC50,[1],"2 µM [falling, full curve]"
N#Cc1c(N)sc(=S)c2c1CCN(Cc1ccccc1)C2,AC50,[2],"31.6 µM [rising, partial curve]"
same,AC50,[3],"39.8 µM [rising, single point]"
COc1ccc2oc(=O)c(-c3nnc(-c4ccc(C)cc4)o3)cc2c1,AC50,[1],"25.1 µM [falling, partial curve]"
CCN(CC)S(=O)(=O)c1ccc2c(c1)N(CC(=O)NCc1ccccc1)C(=O)C1CCCCN21 (stereo not drawn),AC50,[1],"3.16 µM [falling, partial curve, poor fit]"
Cc1cc2c(cc1S(=O)(=O)Nc1ccc(OC(F)(F)F)cc1)OCC(=O)N2,AC50,[1],"20 µM [falling, single point]"

# As a working copy, part of the list above.
smiles,measurement,setting,value
CCOc1ccc(-c2cc3nc(C4CCN(C(=O)OC(C)(C)C)CC4)c(C(=O)Nc4cccc(CC)c4)cn3n2)cc1,AC50,[1],"25.1 µM [falling, partial curve]"
Cc1ccc(CNc2nnc(C)c3nnn(Cc4ccc(F)cc4)c23)cc1,AC50,[1],"1.58 µM [rising, partial curve]"
